The target of the assay is cMET extracellular domain (ECD) (UniProt P08581). Nature of the assay: ELISA, FIG. 3A.

By UniProt entry, the sequences of proteins in these tests, tags left out. Residues count along the entry.
UniProt P08581, residues 25-932: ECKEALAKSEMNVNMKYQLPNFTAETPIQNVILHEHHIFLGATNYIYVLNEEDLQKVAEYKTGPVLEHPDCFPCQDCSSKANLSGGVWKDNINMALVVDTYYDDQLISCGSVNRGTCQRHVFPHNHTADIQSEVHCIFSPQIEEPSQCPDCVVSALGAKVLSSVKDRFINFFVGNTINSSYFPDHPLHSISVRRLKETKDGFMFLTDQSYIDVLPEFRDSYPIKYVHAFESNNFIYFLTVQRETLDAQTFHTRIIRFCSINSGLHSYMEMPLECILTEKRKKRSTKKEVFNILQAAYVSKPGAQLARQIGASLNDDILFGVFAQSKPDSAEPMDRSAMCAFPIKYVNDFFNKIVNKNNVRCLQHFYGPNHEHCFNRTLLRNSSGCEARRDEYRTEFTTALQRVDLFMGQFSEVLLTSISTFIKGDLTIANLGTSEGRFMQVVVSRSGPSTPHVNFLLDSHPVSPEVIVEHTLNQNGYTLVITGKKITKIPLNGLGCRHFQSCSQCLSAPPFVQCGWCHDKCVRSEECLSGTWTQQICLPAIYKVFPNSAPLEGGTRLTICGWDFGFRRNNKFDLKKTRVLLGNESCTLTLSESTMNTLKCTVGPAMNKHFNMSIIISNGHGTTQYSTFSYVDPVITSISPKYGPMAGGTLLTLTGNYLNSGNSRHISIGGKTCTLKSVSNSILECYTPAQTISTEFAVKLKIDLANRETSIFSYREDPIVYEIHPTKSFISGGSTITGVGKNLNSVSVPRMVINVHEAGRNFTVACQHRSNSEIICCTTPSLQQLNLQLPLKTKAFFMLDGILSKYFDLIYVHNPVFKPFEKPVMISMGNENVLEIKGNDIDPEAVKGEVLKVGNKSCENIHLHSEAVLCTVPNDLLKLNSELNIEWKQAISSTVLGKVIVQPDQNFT

No constants are given. Whether binding was seen depends on the method and setting. Some entries that bind do so weakly or less than the wild type.

B1: TV4 (antibody, V domains shown)
VH: QVQLQESGPGLVKPSGTLSLTCAVSGYIFTAYTMHWVRQPPGKGLEWIGGIKPNNGLANYNPSLKSRATLSVDKSKNQASMKLSSVTAADTAVYYCARSEITTEFDYWGQGTLVTVSS
VL: DIQMTQSPSSLSASVGDRVTITCRASESVDSYANSFMHWYQQKPGKAPKLLIYRASNLESGVPSRFSGSGSGTDFTLTISSLQPEDFATYYCQQSKEDPLTFGGGTKVEIK
For B1, the binding result is reported as “binds”.

B2: TV1 (antibody, V domains shown)
VH: QVQLVQSGAEVKKPGSSVKVSCKASGYIFTAYTMHWVRQAPGQGLEWMGGIKPNNGLANYAQKFQGRVTITADESTSTAYMELSSLRSEDTAVYYCARSEITTEFDYWGQGTLVTVSS
VL: DIVMTQSPDSLAVSLGERATINCKSSESVDSYANSFLHWYQQKPGQPPKLLIYRASTRESGVPDRFSGSGSGTDFTLTISSLQAEDVAVYYCQQSKEDPLTFGGGTKVEIK
In the case of B2, the binding result was “binds”.

The record behind these values is patent publication US20250230248A1.
